Experimental data as given in the supplement of paper PMC3334620.
In all, about 33,000 sequences were measured (“E-score (-0.5 to 0.5)”: median about -0.016, highest 2% from about 0.3 on). This is one part of the list.

target: T1, Yer184c (UniProt P39961); assay: PBM E-score (8-mer binding enrichment) (E-score (-0.5 to 0.5)); higher = stronger / more preferred TF binding; conditions: protein concentration: 100 nM; construct: GST-full length
T1 sequence: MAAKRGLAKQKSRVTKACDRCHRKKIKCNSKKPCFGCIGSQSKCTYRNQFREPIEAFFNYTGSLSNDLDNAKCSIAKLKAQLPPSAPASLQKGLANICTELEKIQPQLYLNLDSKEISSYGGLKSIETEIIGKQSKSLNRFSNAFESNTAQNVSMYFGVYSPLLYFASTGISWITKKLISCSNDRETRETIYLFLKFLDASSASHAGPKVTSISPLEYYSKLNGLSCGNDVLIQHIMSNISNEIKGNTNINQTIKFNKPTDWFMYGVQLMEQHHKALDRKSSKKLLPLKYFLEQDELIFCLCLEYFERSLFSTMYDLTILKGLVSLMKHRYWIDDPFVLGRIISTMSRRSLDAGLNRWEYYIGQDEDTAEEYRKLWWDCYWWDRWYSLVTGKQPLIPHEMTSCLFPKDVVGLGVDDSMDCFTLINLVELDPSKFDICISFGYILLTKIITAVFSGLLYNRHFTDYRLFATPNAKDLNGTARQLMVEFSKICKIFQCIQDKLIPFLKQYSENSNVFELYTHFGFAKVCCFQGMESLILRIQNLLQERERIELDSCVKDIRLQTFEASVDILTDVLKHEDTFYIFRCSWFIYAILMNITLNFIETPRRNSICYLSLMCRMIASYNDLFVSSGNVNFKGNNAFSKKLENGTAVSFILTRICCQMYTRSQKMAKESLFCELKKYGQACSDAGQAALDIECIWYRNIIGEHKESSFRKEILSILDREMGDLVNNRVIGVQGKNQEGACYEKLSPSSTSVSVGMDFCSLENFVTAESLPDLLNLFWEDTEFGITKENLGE
Outline: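 For each ungapped eight-base word taken together with its reverse complement, the Universal PBM Analysis Suite assigned an E-score. Binding data came from GST-tagged yeast transcription factors, applied at about 100-200 nM, on universal all-10-mer Agilent arrays made double-stranded by primer extension. Fluorescent anti-GST marked bound protein, and scans were normalised with masliner.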

Sequence	PBM E-score
ACTACCCC	-0.239
ACCCCGAA	0.207
AAGTCCTA	-0.0369
AAACAGGG	-0.276
AAAGACGC	-0.0261
ACGCTTGC	-0.153
ACACGCAT	-0.0669
CACCAAAC	0.0683
ATTACTTG	0.0505
ATGCGCTG	-0.119
CCCGTGGA	-0.0641
GAGGAACA	0.188
CCCCCCAA	-0.322
CCGCCGTA	0.075
CTGTGACC	-0.213
GCGCCTAC	-0.0199
AGAAGGCG	-0.201
CTGGATCC	0.143
GGGTGGGA	-0.23
AATACGGT	-0.0873
GAACTCTC	-0.117
GATCCTTA	-0.128

7 records picked at random from the list so far, as already listed:
Sequence	PBM E-score
ACTACCCC	-0.239
AAACAGGG	-0.276
ATTACTTG	0.0505
CACCAAAC	0.0683
CTGTGACC	-0.213
AAAGACGC	-0.0261
CCGCCGTA	0.075

Next entries follow.

Sequence	PBM E-score
TCCCTGAA	0.00408
CTAGTCTA	-0.208
AAATTCGT	0.261
AACTCTAT	-0.0925
CCCGGTAA	0.221
ACTACTAA	0.0902
AATCTTTA	0.161
ACCAGTTG	0.0141
AACCAGGA	-0.0486
TAGCAAAA	0.203
CCTAGACC	-0.214
CTACCATA	-0.109
GTGACCAC	-0.089
AAAAGCTC	0.0775
CGTGTAAA	-0.0166
CCTTGGTC	-0.121
CTATAGAG	-0.0837
CGCCACGC	-0.0756
GAGACCGC	-0.0768
CGCTTGTC	-0.00249
GTGCTGTA	0.0377
CATGAATC	-0.0648

Sequence	PBM E-score
AATCGTAA	-0.102
CCAGCATC	-0.069
CTACCCCA	-0.217
CTGATCTA	0.0444
AGCAGCGG	-0.0135
ACCGCTCT	-0.0521
ATAAAGAA	0.166
GGAAGACA	0.0786
AATACCAT	0.161
TAGTCATA	-0.117
ACTCCGAA	0.241
AAAAGGTA	-0.0866
CATGTAAA	-0.0482
ACTATTAG	0.0716
GATAAAAC	0.305
TACCCGGA	0.354
CCGAGTCA	0.198
CCAATGGC	-0.109
AGTCAGCC	-0.105
AGGAGTGG	-0.149
CACTAGGC	-0.175
CACCAAAA	0.0384

Sequence	PBM E-score
ATTCAAGC	0.181
AACACTGC	0.0293
ACTACGGA	0.155
TCTGGTCA	-0.0629
TAAGGGCA	0.0258
CAATCATA	0.138
ATCGGTAG	0.141
ACCAGGGC	-0.2
AAGTTCCA	-0.106
ATAGTTTG	0.0884
CAAGGGCC	-0.27
AGCCACGC	-0.126
TCCCCCCA	-0.377
CAAATGAA	0.189
AATCCTAG	0.0878
GCCTTGAA	-0.133
ATGCGAGG	-0.122
GCGGTTTA	0.0396
ATGCGATA	0.0577
CCCGCAGA	0.08
